Results as given in patent publication US12601016B2, “Genetically encoded fluorescent indicators under optogenetic control and uses thereof” (LUMISTAR BIOTECHNOLOGY, INC., priority 2018, dated 2026).

Test: Ca^2+ titration of purified NIR-GECO variants (EGTA-buffered Ca^2+ solutions)
Assay type: binding
Conditions: Ca^2+ titration of purified protein, 25° C.
Text: NIR-GECO1 is a near infrared indicator and is engineered from a naturally-monomeric infrared fluorescent proteins (mIFP). NIR-GECO1 has absorbance and emission peaks at 678 and 704 nm, respectively, and undergoes a 90% decrease in fluorescence intensity upon binding Ca^2+, serving as an inverse response indicator contrast to K-GECO1, as shown in FIG. 2B.
To purify NIR-GECO variants for in vitro characterization, the gene encoding variants of interest with a poly-histidine tag on the C terminus, was expressed from the pBAD vector. Bacteria were lysed with a cell disruptor (Constant Systems Ltd) and then centrifuged at 15,000 g for 30 min, and proteins were purified by Ni-NTA affinity chromatography (Agarose Bead Technologies). The buffer was typically exchanged to 10 mM MOPS, 100 mM KCl (pH 7.2) with centrifugal concentrators (GE Healthcare Life Sciences).
Ca^2+ titrations were carried out using EGTA-buffered Ca^2+ solutions (Calcium Calibration Buffer Kit no. 1, Life Technologies). We prepared buffers by mixing a CaEGTA buffer (30 mM MOPS, 100 mM KCl, 10 mM EGTA, 10 mM CaCl2) and an EGTA buffer (30 mM MOPS, 100 mM KCl, 10 mM EGTA) to give free Ca^2+ concentrations ranging from 0 to 39 μM at 25° C. Fluorescence intensities were plotted against Ca^2+ concentrations and fitted by a sigmoidal binding function to determine the Hill coefficient and Kd.

Substance	Hill coefficient
NIR-GECO1: near infrared genetically encoded Ca^2+ indicator engineered from monomeric infrared fluorescent protein mIFP (SEQ ID NO. 6)	1.03
NIR-GECO2: near infrared Ca^2+ indicator sharing 99% sequence identity with NIR-GECO1 (SEQ ID NO. 7)	1.01
